Laboratory results as given in PubChem BioAssay AID540256 (National Center for Advancing Translational Sciences (NCATS), 2011).
In all, about 300,000 compounds went through this assay and about 3,700 (1.2%) were called active. This list was built around the results that the source calls inconclusive (neither active nor inactive); the mix of calls is not that of the screen. The call rests on the fitted dose curve; tested in HEK293 cells. Potencies beside an inconclusive call are fits to weak or partial responses and may not hold up.

experiment: qHTS for Inhibitors of binding or entry into cells for Lassa Virus; conditions: Lassa virus pseudotype entry inhibition, cell reporter; activity change, negative = inhibition: at 37.9 µM (top of the series) unless noted; further: nearly all actives have a fitted effect of over 50% in size
On the % scale 0 is the no-effect control and ±100 the full control effect; potency means the concentration at half of the fitted maximal effect.

| SMILES | Potency | activity change, negative = inhibition |
| --- | --- | --- |
| CC(c1ccco1)N(Cc1ccco1)C(=O)Nc1ccccc1 (stereo not given) | inconclusive: 4.11 µM [activator, single point] | – |
| CCn1c(CNc2nc(-c3ccccc3)cs2)nnc1SCC(=O)NCc1ccccc1 | inconclusive: 0.259 µM [inhibitor, single point] | – |
| CC(C)Sc1snnc1-c1ccccc1 | – | inconclusive: 32.3% [activator] [at 46.1 µM] |
| N=C1C(c2nc3ccccc3s2)=C(O)CN1NC(=O)c1ccc([N+](=O)[O-])cc1 | inconclusive: 3.98 µM [activator, single point] | – |
| CCC(c1nnc(SCC(=O)Nc2ccc(NC(C)=O)cc2)n1Cc1ccccc1)N(C)C (stereo not given) | inconclusive: 3.55 µM [inhibitor, single point] | – |
| Cc1ccc(C(=O)NCCSc2ccccc2)cc1S(=O)(=O)Nc1ccccc1 | inconclusive: 32.6 µM [inhibitor, single point] | – |
| COc1ccc(-n2ncc3c(NCCCn4ccnc4)ncnc32)cc1 | inconclusive: 3.66 µM [activator, single point] | – |
| N#Cc1nc(-c2ccc(COc3ccccc3)o2)oc1N1CCCCC1 | – | inactive: -22.6% [at 46.1 µM] |
| C#CCOc1ccc2c(c1)c(C(C)=O)c(C)n2Cc1ccccc1 | inconclusive: 3.98 µM [inhibitor, full curve, poor fit] | – |
| Cc1ccc(CNC(=O)C(=O)NCC(c2ccco2)S(=O)(=O)c2ccccc2)cc1 (stereo not given) | inconclusive: 35.5 µM [inhibitor, partial curve, poor fit] | – |
| CCCn1c(SCC(=O)NC)nnc1C(C)C | inconclusive: 11.6 µM [inhibitor, partial curve, poor fit] | – |
| CCN(CC)S(=O)(=O)c1ccc(N2CCOCC2)c(NC(=S)NC(=O)c2ccco2)c1 | inconclusive: 6.31 µM [inhibitor, partial curve, poor fit] | – |
| CCCSC(=S)c1c(C)[nH]n(-c2ccccc2)c1=O | inconclusive: 11.2 µM [inhibitor, partial curve] | – |
| CCOc1ccc(NC(=O)/C(=C\c2ccc(OC(C)=O)c(OC)c2)NC(C)=O)cc1 | inconclusive: 35.5 µM [inhibitor, single point] | – |
| COc1cc(/C=N/O)ccc1OCc1ccc([N+](=O)[O-])cc1 | inconclusive: 0.517 µM [activator, full curve, poor fit] | – |
| CCCC(=O)Nc1ccc(C(=O)N/N=C/c2ccc([N+](=O)[O-])o2)cc1 | inconclusive: 14.6 µM [inhibitor, partial curve] | – |
| CC(C)N(Cc1ccccc1)C(=O)COC(=O)c1ccccc1SCC(=O)N1CCCC1 | inconclusive: 11.2 µM [inhibitor, partial curve, poor fit] | – |
| COc1ccc(OC)c(CNc2nc3ccc(C)cc3n3nnnc23)c1 | – | inactive: -8.22% [at 46.1 µM] |
| Cc1csc(SCC(=O)Nc2ccccc2)n1 | – | inactive: 21.3% [at 46.1 µM] |
| CCCN(Cc1cc2cc(C)ccc2[nH]c1=O)C(=O)c1cccc(OC)c1 | inconclusive: 35.5 µM [inhibitor, single point] | – |
| COc1ccc(OC)c(NC(=O)[C@H](CSCc2ccccc2)N2Cc3ccccc3C2=O)c1 | inconclusive: 35.5 µM [inhibitor, single point] | – |
| COc1cc(/C=C/C(=O)OCC(=O)NC(=O)NC(C)C)ccc1OCC#N | inconclusive: 2.51 µM [inhibitor, partial curve, poor fit] | – |

| SMILES | Potency | activity change, negative = inhibition |
| --- | --- | --- |
| N#CCC(=O)Nc1ccc(C(=O)OCC(=O)N(C2CCCCC2)C2CCCCC2)cc1 | inconclusive: 22.4 µM [inhibitor, single point] | – |
| CCOc1ccc2nc(N3CCOCC3)nc(C)c2c1 | inconclusive: 3.16 µM [activator, partial curve, poor fit] | – |
| O=C(NCc1ccccc1F)c1ccc(CSc2nc3cccnc3n2Cc2ccccc2)cc1 | inconclusive: 12.6 µM [inhibitor, single point] | – |
| Cc1ccc(-c2nnc(Nc3ccccc3)c3ccccc23)cc1S(=O)(=O)NCC1CCCO1 (stereo not given) | inconclusive: 32.6 µM [inhibitor, single point] | – |
| COc1cccc(NC(=O)CN(C)C(=O)c2cccnc2Sc2ccc(C)c(C)c2)c1 | inconclusive: 28.2 µM [inhibitor, single point] | – |
| O=C(Nc1cccc(C(F)(F)F)c1)/C(=C/c1ccco1)NC(=O)c1cccs1 | – | inactive: 0.339% |
| CCN(CC)CCn1c(NCc2cccc(OC)c2)nc2ccccc21 | – | inactive: -0.756% |
| Cc1cccc(NC(=O)c2ccc3nccnc3c2)n1 | – | inactive: 13.5% [at 46.1 µM] |
| COc1cc(/C=C(\NC(C)=O)C(=O)NC(C)(C)CC(C)(C)C)ccc1OC(C)=O | inconclusive: 1.26 µM [inhibitor, single point] | – |
| C/C(N)=C(/C#N)C(=O)CSc1nnc(Nc2c(C)cccc2C)s1 | inactive | – |
| CCOC(=O)N1CCN(C(=O)c2cc(S(=O)(=O)N3CCc4ccccc43)ccc2OC)CC1 | active: 1.78 µM | – |
| CCN(C(=O)c1cnc(OC)cc1C(F)(F)F)c1ccc(Cl)cc1Cl | inconclusive: 17.8 µM [inhibitor, partial curve, poor fit] | – |
| S=C(NCCCc1ccccc1)Nc1ccccc1 | – | inactive: -20.3% [at 46.1 µM] |
| O=C(CSc1nnc(COc2ccc(Cl)cc2)o1)N1c2ccccc2CCc2ccccc21 | inconclusive: 7.08 µM [inhibitor, partial curve, poor fit] | – |
| CCCCCc1c(C)nc(N2CCOCC2)[nH]c1=O | – | inactive: 6.14% |
| COc1ccc(/C(N)=N/OC(=O)Cc2cccs2)cc1 | inconclusive: 5.62 µM [activator, single point] | – |
| COc1cc(NC(=O)C2CCCCC2)c(OC)cc1NC(=O)c1ccco1 | inconclusive: 32.6 µM [inhibitor, single point] | – |
| CN(C)c1ccc(NC(=O)Nc2ccc3c(c2)nnn3C)cc1 | – | inactive: 8.57% |
| CCC(Sc1nnc2c3ccccc3n(CC)c2n1)C(=O)Nc1nnc(C(C)C)s1 (stereo not given) | – | inactive: 5.28% [at 46.1 µM] |
| COc1ccc(-c2csc(NC(=O)c3ccc(OCC(=O)N4CCOCC4)c(OC)c3)n2)cc1OC | inconclusive: 18.4 µM [inhibitor, single point] | – |
| O=C(/C=C\NCC(=O)c1ccccc1)c1ccc(F)cc1 | – | inactive: 4.91% |
| Cc1ccc(Cn2c(SCC(=O)N(C)C3CCS(=O)(=O)C3)nc3ccccc3c2=O)cc1 (stereo not given) | inconclusive: 17.8 µM [inhibitor, partial curve, poor fit] | – |

| SMILES | Potency | activity change, negative = inhibition |
| --- | --- | --- |
| Cc1ccc(C)c(C2(O)CC(C)N(C)CC2C)c1 (stereo not given) | – | inactive: 16.4% |
| COc1ccc2c(CNCCc3cccs3)c(C(=O)O)n(Cc3ccc(F)cc3Cl)c2c1 | inconclusive: 3.98 µM [activator, partial curve, poor fit] | – |
| C[C@H]1CC[C@@H]2[C@@H](C)[C@H]3[C@H](C[C@H]4[C@@H]5CC=C6C[C@@H](O[C@@H]7O[C@H](CO)[C@H](O)[C@H](O[C@@H]8O[C@H](CO)[C@@H](O)[C@H](O)[C@H]8O)[C@H]7O[C@@H]7O[C@@H](C)[C@H](O)[C@@H](O)[C@H]7O)CC[C@]6(C)[C@H]5CC[C@]34C)N2C1 | inconclusive: 13 µM [inhibitor, partial curve, poor fit] | – |
| CCCc1ccc(S(=O)(=O)Nc2ccc(C)c(NS(C)(=O)=O)c2)cc1 | inconclusive: 7.08 µM [inhibitor, full curve, poor fit] | – |
| Cc1ccc2c(COC(=O)c3ccc(NC(=O)CC#N)cc3)cc(=O)oc2c1C | inconclusive: 35.5 µM [activator, single point] | – |
| O=C(Nc1ccc2c(c1)CCC2)c1cc(F)cc(F)c1 | – | inactive: -7.25% |
| COc1ccc2nc(NC(C)=O)sc2c1 | – | inactive: 1.1% |
| COc1ccc(-c2cc(C(=O)Nc3c(C)n(C)n(-c4ccccc4)c3=O)no2)cc1OC | – | inactive: 19.1% [at 46.1 µM] |
| OCC1(Cc2ccc(Cl)cc2)CCN(Cc2ccccc2F)CC1 | – | inactive: -0.778% [at 46.1 µM] |
| COc1ccc(C(=O)c2sc3nc(-c4ccc(OC)cc4)ccc3c2N)cc1 | inconclusive: 2 µM [inhibitor, partial curve, poor fit] | – |
| Cc1sc(NC(=O)c2cc(-c3ccc(Cl)cc3)nc3ccccc23)c(C(N)=O)c1C | inconclusive: 20 µM [inhibitor, partial curve, poor fit] | – |
| O=C(CCCn1c(=O)c2cccn2c2ccccc21)NCCc1ccc(Cl)cc1 | inconclusive: 0.794 µM [activator, full curve, poor fit] | – |
| CCCN(C(=O)c1ccc(N2CCCC2=O)cc1)C1CCS(=O)(=O)C1 (stereo not given) | – | inactive: 3.67% |
| CCC(=O)/C=C1/Sc2ccc(OC)cc2N1CCO | – | inactive: 11.7% |
| COc1ccc(CC(=O)Nc2ccc(-c3nc4ccccc4s3)c(C)c2)cc1OC | inconclusive: 22.4 µM [inhibitor, single point] | – |
| COc1ccc2oc(=O)c(C(=O)N3CCN(c4ccc(C)cc4)CC3)cc2c1 | – | inactive: -2.83% [at 46.1 µM] |
| C/C(=C\c1ccc(N(C)C)cc1)[N+](=O)[O-] | inconclusive: 23.1 µM [inhibitor, single point] | – |
| CCOc1ccc(-c2n[nH]c(=S)n2/N=C/c2cc3c(cc2[N+](=O)[O-])OCO3)cc1 | inconclusive: 1.26 µM [inhibitor, full curve, poor fit] | – |
| COc1ccc(C2CC(c3ccc(Br)cc3)=NN2C(=O)CN2CCCC2)cc1 (stereo not given) | inconclusive: 11.2 µM [inhibitor, partial curve, poor fit] | – |
| OCCN(CCO)c1ncnc2c1cnn2-c1ccc(F)cc1 | inconclusive: 35.5 µM [activator, single point] | – |
| Cc1ccc(-c2nc(N3CCOCC3)s[n+]2-c2ccccc2)cc1 | inconclusive: 3.16 µM [activator, partial curve, poor fit] | – |

Arranged by molecular weight (high to low): 4 of the compounds above

| SMILES | Potency | activity change, negative = inhibition |
| --- | --- | --- |
| CCN(CC)S(=O)(=O)c1ccc(N2CCOCC2)c(NC(=S)NC(=O)c2ccco2)c1 | inconclusive: 6.31 µM [inhibitor, partial curve, poor fit] | – |
| N#Cc1nc(-c2ccc(COc3ccccc3)o2)oc1N1CCCCC1 | – | inactive: -22.6% [at 46.1 µM] |
| CC(c1ccco1)N(Cc1ccco1)C(=O)Nc1ccccc1 (stereo not given) | inconclusive: 4.11 µM [activator, single point] | – |
| COc1ccc(/C(N)=N/OC(=O)Cc2cccs2)cc1 | inconclusive: 5.62 µM [activator, single point] | – |
